Assay results taken from patent US20160002338A1 (Hoffmann-La Roche, published 2016).
No constants are given. Whether binding was seen depends on the method and setting. Some results given as binding are weak or reduced against the parent protein; the word gives no strength.

Molecular target: T1, TtSlyD-FKBP-Her3
T1 sequence: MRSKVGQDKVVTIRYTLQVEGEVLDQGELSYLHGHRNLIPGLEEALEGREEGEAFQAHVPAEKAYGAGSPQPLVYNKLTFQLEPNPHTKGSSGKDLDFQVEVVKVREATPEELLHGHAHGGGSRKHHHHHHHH
Assay: SPR kinetic screening

B1: anti-HER3/HER4 antibody M-05-74 (antibody, V domains shown)
VH: QVQLQQSGAELAKPGASVKMSCKTSGYTLTDYWIHWVKQRPGQGLEWIGYINPYTGYTESNQKFKDKATLTADKSSNTAYIQLSSLTSEDSAVYYCARPYYYGDYWGQGTTLTVSS
VL: QIVLTQSPAIMSASPGERVTITCSASSSVSYMHWFQQKPGTSPKLLIYSTSNLASGVPARFSGSGSGTSYSLTISRMEAEDAATYYCQQRSSYPFTFGSGTKLEIK
notes: murine monoclonal antibody from hybridoma (supernatant or purified); also called M-074; M-5-74
binding: binds
